The values that follow come from patent US20090022711A1.

These are yes or no findings as the source states them, for the method shown. Binding seen in cells or lysates may run through a third protein. Some results given as binding are weak or reduced against the parent protein; the word gives no strength.

In this assay the target is T1, endogenous Bit1 of HeLa cells (human) (UniProt Q9Y3E5).
T1 sequence: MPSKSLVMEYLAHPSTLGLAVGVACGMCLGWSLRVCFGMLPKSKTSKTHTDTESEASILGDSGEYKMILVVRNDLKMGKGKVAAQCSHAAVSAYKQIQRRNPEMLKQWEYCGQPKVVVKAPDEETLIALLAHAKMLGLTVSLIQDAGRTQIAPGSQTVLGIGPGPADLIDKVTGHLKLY
Description: co-immunoprecipitation of endogenous proteins from HeLa cells kept in suspension: IP anti-Bit1, IB anti-AES [panel C].

B1: endogenous AES of HeLa cells (protein)
chain: MMFPQSRHSGSSHLPQQLKFTTSDSCDRIKDEFQLLQAQYHSLKLECDKLASEKSEMQRHYVMYYEMSYGLNIEMHKQAEIVKRLNGICAQVLPYLSQEHQQQVLGAIERAKQVTAPELNSIIRQQLQAHQLSQLQALALPLTPLPVGLQPPSLPAVSAGTGLLSLSALGSQAHLSKEDKNGHDGDTHQEDDGEKSD
As for B1, the binding entry is on record as “binds”.
